Data published in publication PMC3197609.
No constants are given. Whether binding was seen depends on the method and setting. Tags and fused reporters may be left off the sequences shown.

Tests used:
Assay in all cases: two-hybrid; […] system; bait as GAL4 DNA binding domain fusion in pAS2, prey as GAL4 activation domain fusion in pACT2, yeast PJ649A cells; interaction shown by growth on plates lacking adenine, or histidine and adenine
[1] = target: T1, DRB2 (yeast two-hybrid fusion) (Arabidopsis) (UniProt Q9SKN2)
T1 sequence: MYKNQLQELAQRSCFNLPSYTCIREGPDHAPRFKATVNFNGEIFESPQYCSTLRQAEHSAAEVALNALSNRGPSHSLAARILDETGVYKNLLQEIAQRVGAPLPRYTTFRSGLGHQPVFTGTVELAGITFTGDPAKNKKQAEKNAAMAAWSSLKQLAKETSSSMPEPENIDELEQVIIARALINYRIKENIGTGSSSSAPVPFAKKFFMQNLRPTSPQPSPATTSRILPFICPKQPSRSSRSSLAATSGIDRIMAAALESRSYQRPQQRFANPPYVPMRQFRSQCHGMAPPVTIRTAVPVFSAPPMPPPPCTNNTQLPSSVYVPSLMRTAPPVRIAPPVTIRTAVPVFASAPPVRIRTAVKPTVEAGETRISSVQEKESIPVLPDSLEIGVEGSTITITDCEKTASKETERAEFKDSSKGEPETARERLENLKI

[2] = target: T2, DRB3 (yeast two-hybrid fusion) (Arabidopsis) (UniProt Q9LJF5)
T2 sequence: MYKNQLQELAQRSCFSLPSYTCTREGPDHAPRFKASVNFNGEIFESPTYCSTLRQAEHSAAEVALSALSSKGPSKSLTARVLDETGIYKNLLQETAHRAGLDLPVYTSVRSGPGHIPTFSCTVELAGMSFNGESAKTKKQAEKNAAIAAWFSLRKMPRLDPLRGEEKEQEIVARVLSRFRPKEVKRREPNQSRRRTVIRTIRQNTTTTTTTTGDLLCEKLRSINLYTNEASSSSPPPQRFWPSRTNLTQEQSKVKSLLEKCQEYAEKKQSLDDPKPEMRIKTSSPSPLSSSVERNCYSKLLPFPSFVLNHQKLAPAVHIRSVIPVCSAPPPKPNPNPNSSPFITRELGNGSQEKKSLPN

[3] = target: T3, DRB5 (yeast two-hybrid fusion) (Arabidopsis) (UniProt Q8GY79)
T3 sequence: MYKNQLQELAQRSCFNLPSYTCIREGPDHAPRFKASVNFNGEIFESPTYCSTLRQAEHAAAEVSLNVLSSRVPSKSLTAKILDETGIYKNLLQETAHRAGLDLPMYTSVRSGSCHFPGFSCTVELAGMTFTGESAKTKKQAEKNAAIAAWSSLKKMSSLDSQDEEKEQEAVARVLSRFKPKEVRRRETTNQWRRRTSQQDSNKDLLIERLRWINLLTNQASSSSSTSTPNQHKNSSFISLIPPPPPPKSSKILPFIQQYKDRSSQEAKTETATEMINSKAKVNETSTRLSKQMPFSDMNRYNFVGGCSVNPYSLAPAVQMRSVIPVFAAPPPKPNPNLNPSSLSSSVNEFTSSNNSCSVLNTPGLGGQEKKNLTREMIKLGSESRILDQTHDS

Measured: binding

βC1 protein of TYLCCNB (yeast two-hybrid fusion)
no binding: all assays above
